Experiment [1] deals with signal transducer and activator of transcription 3 (STAT3) (human (endogenous in HCT116)) (UniProt P40763). Nature of the experiment: co-IP; endogenous proteins in HCT116 lysate; primary antibody and protein A + G magnetic beads overnight at 4 °C, washed thrice with cold lysis buffer, western blotting; cells with or without α-hederin treatment. (In western blotting, separated proteins are transferred to a membrane and probed.)

Amino acid sequences for entries named in this document (tags omitted).
UniProt P45974: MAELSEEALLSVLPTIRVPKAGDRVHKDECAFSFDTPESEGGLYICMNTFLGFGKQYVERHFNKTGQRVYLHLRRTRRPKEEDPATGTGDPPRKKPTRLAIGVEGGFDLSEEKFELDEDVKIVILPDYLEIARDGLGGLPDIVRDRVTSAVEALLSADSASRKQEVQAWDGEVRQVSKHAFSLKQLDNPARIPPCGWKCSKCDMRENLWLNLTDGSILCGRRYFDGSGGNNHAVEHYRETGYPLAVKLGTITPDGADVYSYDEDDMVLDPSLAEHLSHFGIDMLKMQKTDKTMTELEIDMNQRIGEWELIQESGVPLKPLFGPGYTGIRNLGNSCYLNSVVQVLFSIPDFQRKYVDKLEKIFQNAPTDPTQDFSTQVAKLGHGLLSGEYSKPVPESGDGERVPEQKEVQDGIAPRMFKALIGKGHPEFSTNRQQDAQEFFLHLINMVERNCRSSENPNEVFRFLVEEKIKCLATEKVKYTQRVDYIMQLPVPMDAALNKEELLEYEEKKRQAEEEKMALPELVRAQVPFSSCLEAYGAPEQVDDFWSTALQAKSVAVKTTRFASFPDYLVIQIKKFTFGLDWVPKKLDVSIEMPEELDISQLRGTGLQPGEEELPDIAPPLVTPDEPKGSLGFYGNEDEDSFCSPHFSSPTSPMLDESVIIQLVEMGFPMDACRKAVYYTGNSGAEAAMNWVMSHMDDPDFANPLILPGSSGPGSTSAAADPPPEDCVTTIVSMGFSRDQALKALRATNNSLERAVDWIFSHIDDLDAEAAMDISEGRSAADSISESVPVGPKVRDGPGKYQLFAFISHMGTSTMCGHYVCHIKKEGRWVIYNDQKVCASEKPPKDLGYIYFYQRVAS
UniProt P42227: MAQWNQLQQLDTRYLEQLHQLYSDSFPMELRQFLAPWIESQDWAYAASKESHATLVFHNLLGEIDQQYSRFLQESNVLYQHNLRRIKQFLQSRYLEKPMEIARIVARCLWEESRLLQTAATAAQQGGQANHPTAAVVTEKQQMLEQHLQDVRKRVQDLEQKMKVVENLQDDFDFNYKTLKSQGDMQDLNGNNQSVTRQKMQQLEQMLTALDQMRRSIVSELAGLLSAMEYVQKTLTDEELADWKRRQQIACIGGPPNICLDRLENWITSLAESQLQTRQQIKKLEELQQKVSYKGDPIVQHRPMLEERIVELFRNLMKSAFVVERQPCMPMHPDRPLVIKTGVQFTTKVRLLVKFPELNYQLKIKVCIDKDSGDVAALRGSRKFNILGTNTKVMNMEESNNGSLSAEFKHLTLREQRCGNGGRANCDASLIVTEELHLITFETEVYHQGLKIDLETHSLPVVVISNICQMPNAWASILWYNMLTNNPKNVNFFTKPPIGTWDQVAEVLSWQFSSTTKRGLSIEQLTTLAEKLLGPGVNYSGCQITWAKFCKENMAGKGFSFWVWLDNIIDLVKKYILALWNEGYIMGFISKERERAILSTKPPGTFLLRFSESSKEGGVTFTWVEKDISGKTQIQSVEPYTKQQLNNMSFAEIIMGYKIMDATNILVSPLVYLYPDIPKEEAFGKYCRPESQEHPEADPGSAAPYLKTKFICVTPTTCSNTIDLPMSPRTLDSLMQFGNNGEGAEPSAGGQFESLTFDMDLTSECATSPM
UniProt P56399: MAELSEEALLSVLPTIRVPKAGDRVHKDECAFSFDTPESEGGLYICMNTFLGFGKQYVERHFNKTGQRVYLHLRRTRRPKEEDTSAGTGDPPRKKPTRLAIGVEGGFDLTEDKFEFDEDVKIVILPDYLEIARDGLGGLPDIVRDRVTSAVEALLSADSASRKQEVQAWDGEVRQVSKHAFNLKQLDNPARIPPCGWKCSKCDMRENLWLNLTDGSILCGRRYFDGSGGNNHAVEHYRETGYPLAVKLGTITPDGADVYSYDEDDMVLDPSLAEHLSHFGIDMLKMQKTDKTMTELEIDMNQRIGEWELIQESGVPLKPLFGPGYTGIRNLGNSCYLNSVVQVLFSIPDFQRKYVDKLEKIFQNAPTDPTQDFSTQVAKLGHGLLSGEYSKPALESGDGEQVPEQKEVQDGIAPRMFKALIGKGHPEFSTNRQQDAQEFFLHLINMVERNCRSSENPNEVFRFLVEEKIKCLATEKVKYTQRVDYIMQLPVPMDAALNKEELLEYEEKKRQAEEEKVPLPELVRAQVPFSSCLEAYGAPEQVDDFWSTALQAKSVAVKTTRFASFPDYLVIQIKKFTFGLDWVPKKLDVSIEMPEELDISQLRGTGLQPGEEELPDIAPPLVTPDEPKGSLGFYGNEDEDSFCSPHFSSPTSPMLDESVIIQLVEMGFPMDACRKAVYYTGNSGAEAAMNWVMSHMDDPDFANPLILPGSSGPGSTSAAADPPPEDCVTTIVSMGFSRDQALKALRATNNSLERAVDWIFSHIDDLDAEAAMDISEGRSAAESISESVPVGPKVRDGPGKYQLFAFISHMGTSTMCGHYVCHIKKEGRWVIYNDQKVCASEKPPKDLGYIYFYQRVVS

The target of experiment [2] is Sequestosome 1 (p62) (human (endogenous in HCT116)) (UniProt Q13501). Described as above.
Experiment [3] addresses ubiquitin specific peptidase 5 (USP5) (human (endogenous in HCT116)) (UniProt P45974). The description is as above.
The target of experiment [4] is signal transducer and activator of transcription 3 (STAT3), mouse colon tissue (mouse (endogenous in colon tissue of C57BL/6 mice)) (UniProt P42227). Nature of the experiment: co-IP; endogenous proteins in colon tissue lysates of mice of the model (AOM/DSS) and α-hederin H groups; primary antibody and protein A + G magnetic beads overnight at 4 °C, western blotting.

No constants are given. Whether binding was seen depends on the method and setting. Binding seen in cells or lysates may run through a third protein. Some entries that bind do so weakly or less than the wild type.

With “Sequestosome 1 (p62) (from UniProt Q13501 1-440)”, the binding entry in experiment [1] is “binds”.

With “signal transducer and activator of transcription 3 (STAT3) (from UniProt P40763 1-770)”, the binding entry in experiment [2] and in experiment [3] was “binds” in each case.

Consider “ubiquitin specific peptidase 5 (USP5) (from UniProt P45974 1-858) (enzyme)”, for which the binding entry in experiment [1] is reported as “binds”.

Turning to “ubiquitin specific peptidase 5 (USP5), mouse colon tissue (from UniProt P56399 1-858) (enzyme)”, in experiment [4], the binding result is reported as “binds”.

The values are drawn from paper PMC12631106.
